# Results reported in patent US20190367611A1.
# Amino acid sequences for entries named in this document (tags omitted).
# UniProt P06654: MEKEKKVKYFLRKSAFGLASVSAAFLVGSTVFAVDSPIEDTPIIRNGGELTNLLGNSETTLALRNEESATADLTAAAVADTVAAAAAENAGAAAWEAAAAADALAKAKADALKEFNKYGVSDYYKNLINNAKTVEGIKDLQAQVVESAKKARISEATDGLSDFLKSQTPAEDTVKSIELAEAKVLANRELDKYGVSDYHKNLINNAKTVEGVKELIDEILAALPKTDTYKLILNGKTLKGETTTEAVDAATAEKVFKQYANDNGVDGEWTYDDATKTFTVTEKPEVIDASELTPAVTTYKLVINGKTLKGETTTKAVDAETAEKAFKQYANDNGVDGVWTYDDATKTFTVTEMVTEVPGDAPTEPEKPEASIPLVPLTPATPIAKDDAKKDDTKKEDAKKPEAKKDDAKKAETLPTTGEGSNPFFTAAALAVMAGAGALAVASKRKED
# No constants are given. Whether binding was seen depends on the method and setting. Some entries that bind do so weakly or less than the wild type.
# Target: protein G (UniProt P06654)
# Experiment: semELISA on protein G-coated plates
row,Substance,binding
1,mFc3 (from UniProt P0DOX5 233-449),binds
2,mFc7 (from UniProt P0DOX5 233-449),binds
3,mFc12 (from UniProt P0DOX5 233-449),binds
4,mFc8 (from UniProt P0DOX5 233-449),binds

# Target: protein G (UniProt P06654)
# Experiment: semELISA on protein G
row,Substance,binding
1,mFc7.22 (from UniProt P0DOX5 233-449),binds
2,mFc7.27 (from UniProt P0DOX5 233-449),binds
